Results are given in words; binding and its absence hold for the method and conditions named. Binding seen in cells or lysates may run through a third protein. Binding can be weak; no strength is given.
Legend:
[1] = target: T1, Mitofilin/MIC60 (human (endogenous in fibroblasts)) (UniProt Q16891); assay: proximity ligation
T1 sequence: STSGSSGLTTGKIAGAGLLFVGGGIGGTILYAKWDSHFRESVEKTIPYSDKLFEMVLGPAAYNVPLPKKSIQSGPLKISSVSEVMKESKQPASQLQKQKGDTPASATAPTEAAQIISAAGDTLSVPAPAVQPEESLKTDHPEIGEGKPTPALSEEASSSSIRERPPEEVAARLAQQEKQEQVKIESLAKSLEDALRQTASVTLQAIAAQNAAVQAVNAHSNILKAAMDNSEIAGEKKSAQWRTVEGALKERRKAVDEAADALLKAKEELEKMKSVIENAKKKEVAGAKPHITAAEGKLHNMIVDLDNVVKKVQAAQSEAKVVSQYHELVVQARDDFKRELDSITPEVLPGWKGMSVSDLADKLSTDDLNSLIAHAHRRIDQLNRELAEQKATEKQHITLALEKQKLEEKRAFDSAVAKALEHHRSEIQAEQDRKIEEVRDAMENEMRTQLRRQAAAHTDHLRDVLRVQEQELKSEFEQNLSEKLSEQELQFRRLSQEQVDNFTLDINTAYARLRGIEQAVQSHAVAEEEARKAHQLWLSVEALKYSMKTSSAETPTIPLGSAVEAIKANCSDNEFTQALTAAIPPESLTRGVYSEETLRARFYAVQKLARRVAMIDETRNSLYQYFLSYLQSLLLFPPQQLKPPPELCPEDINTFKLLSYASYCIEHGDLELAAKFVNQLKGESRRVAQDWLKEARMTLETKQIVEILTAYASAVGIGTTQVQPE

[2] = target: T1, Mitofilin/MIC60 (human (endogenous in fibroblasts)); assay: co-IP

binding [1]: binds
binding [2]: binds
Substance: OPA1 (Optic Atrophy type 1) (human (endogenous in fibroblasts))

Source: publication doi:10.1101/2021.05.31.446377
